Source: PubChem BioAssay AID1671195 (Yale University, 2021)
Here is one part, drawn at random, of about 22,000 reagents. In the full data, about 1,510 (6.9%) got an active call. 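Active includes knockdowns raising or lowering LDL uptake; positive z-scores mean more uptake, negative mean less.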 Entries without a mark were called inactive.

- Screen: 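Knockdowns that increase or decrease uptake of fluorescent LDL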 (primary screen)
- System: human Huh7 hepatoma cells
- Reagents: siRNA pool against human genes, 18 nM
- Duration: about 2 to 2.5 days of knockdown, then 8 h LDL uptake
- Conditions: DiI-labelled LDL at 30 µg/ml for 8 h, in lipoprotein-deficient serum medium
- Measured: 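Per-cell DiI-LDL intensity by automated imaging; well means scaled to the plate median and given as a robust z-score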
- Scale: robust z-score: higher = more LDL uptake after knockdown
- Hit rule: 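a gene counts as active if at least two replicate z-scores exceed ±2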

LOC441121 (retired record) → robust z-score, replicate 1 = -0.685; robust z-score, replicate 2 = -0.354; robust z-score, replicate 3 = -0.663
SYT4 → robust z-score, replicate 1 = 0.168; robust z-score, replicate 2 = 0.139; robust z-score, replicate 3 = 0.218
SUPT16H → robust z-score, replicate 1 = -0.973; robust z-score, replicate 2 = 1.38; robust z-score, replicate 3 = 0.568
OR4C3 → robust z-score, replicate 1 = -1.52; robust z-score, replicate 2 = -1.35; robust z-score, replicate 3 = -1.31
LOC132706 (retired record) → robust z-score, replicate 1 = -0.487; robust z-score, replicate 2 = -1.03; robust z-score, replicate 3 = -1.42
HSPA8P6 → robust z-score, replicate 1 = -1.38; robust z-score, replicate 2 = -1.51; robust z-score, replicate 3 = -1.05
MXRA8 → robust z-score, replicate 1 = 0.233; robust z-score, replicate 2 = 0.711; robust z-score, replicate 3 = 0.0707
LOC219797 (retired record) → robust z-score, replicate 1 = -0.175; robust z-score, replicate 2 = 0.16; robust z-score, replicate 3 = 0.155
ATG4D → robust z-score, replicate 1 = -1.66; robust z-score, replicate 2 = -1.66; robust z-score, replicate 3 = -1.66
RICTOR → robust z-score, replicate 1 = 0.245; robust z-score, replicate 2 = 0.334; robust z-score, replicate 3 = 0.367
UCP3 → robust z-score, replicate 1 = -0.497; robust z-score, replicate 2 = 0.297; robust z-score, replicate 3 = -0.214
TRIOBP → robust z-score, replicate 1 = 0.232; robust z-score, replicate 2 = 0.764; robust z-score, replicate 3 = 0.912
SLC2A12 → robust z-score, replicate 1 = 1.28; robust z-score, replicate 2 = 0.797; robust z-score, replicate 3 = 1.78
ZNF471 → robust z-score, replicate 1 = 2.03 (active); robust z-score, replicate 2 = 2.69; robust z-score, replicate 3 = 1.9
LOC400937 (retired record) → robust z-score, replicate 1 = 1.16; robust z-score, replicate 2 = 1.11; robust z-score, replicate 3 = 1.61
KCTD18 → robust z-score, replicate 1 = 0.52; robust z-score, replicate 2 = -0.399; robust z-score, replicate 3 = 0.674
DES → robust z-score, replicate 1 = -0.807; robust z-score, replicate 2 = -0.629; robust z-score, replicate 3 = 0.168
PIAS4 → robust z-score, replicate 1 = -1.66; robust z-score, replicate 2 = -0.756; robust z-score, replicate 3 = -0.116
OSCP1 → robust z-score, replicate 1 = 2.72 (active); robust z-score, replicate 2 = 2.24; robust z-score, replicate 3 = 2.05
ZNF250 → robust z-score, replicate 1 = 0.628; robust z-score, replicate 2 = 0.678; robust z-score, replicate 3 = 0.631
ADGRB1 → robust z-score, replicate 1 = 1.07; robust z-score, replicate 2 = 0.164; robust z-score, replicate 3 = -0.628
ZSCAN5A → robust z-score, replicate 1 = -0.927; robust z-score, replicate 2 = -0.912; robust z-score, replicate 3 = -0.777
CIAO2B → robust z-score, replicate 1 = -1.33; robust z-score, replicate 2 = 0.417; robust z-score, replicate 3 = 0.562
JRK → robust z-score, replicate 1 = 1.8; robust z-score, replicate 2 = 1.65; robust z-score, replicate 3 = 1.61
